In patent US20260256792A1, “TREATMENT OF CHRONIC SPONTANEOUS URTICARIA BY ADMINISTERING (R)-2-[3-[4-AMINO-3-(2-FLUORO-4-PHENOXY-PHENYL)PYRAZOLO[3,4-D]PYRIMIDIN-1-YL]PIPERIDINE-1-CARBONYL]-4-METHYL-4-[4-(OXETAN-3-YL)PIPERAZIN-1-YL]PENT-2-ENENITRILE” (priority 2023, published 2026):
This continues a long series; more values of the same kind are listed elsewhere.

System: moderate-to-severe chronic spontaneous urticaria (CSU)
Experiment: Phase 2 CSU study: itch severity score over 7 days (ISS7)
Assay type: in vivo, human
Conditions: Omalizumab-naïve population
Text: The study comprises a 12 week, randomized, double-blind, placebo-controlled, multi-center, dose-ranging efficacy and safety phase, followed by a 40 week open label extension (OLE) phase (see FIG. 1). The study consists of three phases and an optional OLE phase. […] Clinically, CSU is characterized by the spontaneous and recurrent appearance of pruritic hives. The proposed primary endpoints were the UAS7 at Week 12 in EU and EU reference countries and the ISS7 in the US. Regardless of where a participant was from, all assessments were the same. The UAS7 score is a composite score containing both the HSS7 and the ISS7. This allowed a global assessment of the two key components of urticaria: hives and itch. […] The UAS is a validated PRO measure. […] The daily UAS scores range from 0 to 6 point/day. […] Patients were to complete the UAS using the e-diary. […] The following secondary endpoints were to be analyzed using the same approach as for the primary endpoint: • Change from baseline in UAS7 at Week 4 • Change from baseline in UAS7 at Week 12 (for US and US reference countries) • Change from baseline in ISS7 at Week 12 (except US and US reference countries) • Change from baseline in HSS7 at Week 12

[1] = 400 mg BID, Age group (years) ≥65
[2] = 400 mg BID, Baseline BMI (kg/m^2) <25
[3] = 400 mg BID, Baseline BMI (kg/m^2) >25-<30
[4] = 400 mg BID, Baseline BMI (kg/m^2) ≥30
[5] = 400 mg BID, Baseline weight (kg) <60
[6] = 400 mg BID, Baseline weight (kg) <72.9 (Median)
[7] = 400 mg BID, Baseline weight (kg) ≥60-<90
[8] = 400 mg BID, Baseline weight (kg) ≥72.9 (Median)
[9] = 400 mg BID, Baseline weight (kg) ≥90
[10] = 400 mg QPM, Age group (years) ≥65
[11] = 400 mg QPM, Baseline BMI (kg/m^2) <25
[12] = 400 mg QPM, Baseline BMI (kg/m^2) >25-<30
[13] = 400 mg QPM, Baseline BMI (kg/m^2) ≥30
[14] = 400 mg QPM, Baseline weight (kg) <60
[15] = 400 mg QPM, Baseline weight (kg) <72.9 (Median)
[16] = 400 mg QPM, Baseline weight (kg) ≥60-<90
[17] = 400 mg QPM, Baseline weight (kg) ≥72.9 (Median)
[18] = 400 mg QPM, Baseline weight (kg) ≥90
[19] = 400 mg TID, Baseline BMI (kg/m^2) <25
[20] = 400 mg TID, Baseline BMI (kg/m^2) >25-<30
[21] = 400 mg TID, Baseline BMI (kg/m^2) ≥30
[22] = 400 mg TID, Baseline weight (kg) <60
[23] = 400 mg TID, Baseline weight (kg) <72.9 (Median)
[24] = 400 mg TID, Baseline weight (kg) ≥60-<90

## CC(C)(C=C(C#N)C(=O)N1CCC[C@@H](n2nc(-c3ccc(Oc4ccccc4)cc3F)c3c(N)ncnc32)C1)N1CCN(C2COC2)CC1 [rilzabrutinib, (R)-2-[3-[4-amino-3-(2-fluoro-4-phenoxy-phenyl)pyrazolo[3,4-d]pyrimidin-1-yl]piperidine-1-carbonyl]-4-methyl-4-[4-(oxetan-3-yl)piperazin-1-yl]pent-2-enenitrile]
[1]
  Change from Baseline in ISS7 at Week 12, LS Mean: −13.32
  Change from Baseline in ISS7 at Week 12, LS Mean Diff vs. placebo: −14.22
400 mg BID, Baseline BHRA BHRA−
  Change from Baseline in ISS7 at Week 12, LS Mean Diff vs. placebo: −1.10
[2]
  Change from Baseline in ISS7 at Week 12, LS Mean: −7.22
  Change from Baseline in ISS7 at Week 12, LS Mean Diff vs. placebo: −2.81
  Change from Baseline in ISS7 at Week 12, Mean: −7.34
[3]
  Change from Baseline in ISS7 at Week 12, LS Mean: −6.90
  Change from Baseline in ISS7 at Week 12, LS Mean Diff vs. placebo: −1.35
  Change from Baseline in ISS7 at Week 12, Mean: −7.10
[4]
  Change from Baseline in ISS7 at Week 12, LS Mean: −8.24
  Change from Baseline in ISS7 at Week 12, Mean: −8.00
[5]
  Change from Baseline in ISS7 at Week 12, LS Mean: −5.70
  Change from Baseline in ISS7 at Week 12, LS Mean Diff vs. placebo: −1.37
  Change from Baseline in ISS7 at Week 12, Mean: −5.29
[6]
  Change from Baseline in ISS7 at Week 12, LS Mean: −6.60
  Change from Baseline in ISS7 at Week 12, LS Mean Diff vs. placebo: −0.84
  Change from Baseline in ISS7 at Week 12, Mean: −6.55
[7]
  Change from Baseline in ISS7 at Week 12, LS Mean: −7.08
  Change from Baseline in ISS7 at Week 12, LS Mean Diff vs. placebo: −1.01
  Change from Baseline in ISS7 at Week 12, Mean: −7.71
[8]
  Change from Baseline in ISS7 at Week 12, LS Mean: −8.28
  Change from Baseline in ISS7 at Week 12, LS Mean Diff vs. placebo: −3.62
  Change from Baseline in ISS7 at Week 12, Mean: −8.75
[9]
  Change from Baseline in ISS7 at Week 12, LS Mean: −10.60
  Change from Baseline in ISS7 at Week 12, LS Mean Diff vs. placebo: −5.46
  Change from Baseline in ISS7 at Week 12, Mean: −10.67
400 mg BID, Gender Female
  Change from Baseline in ISS7 at Week 12, LS Mean: −6.92
  Change from Baseline in ISS7 at Week 12, LS Mean Diff vs. placebo: −0.62
400 mg BID, Gender Male
  Change from Baseline in ISS7 at Week 12, LS Mean: −8.42
  Change from Baseline in ISS7 at Week 12, LS Mean Diff vs. placebo: −4.88
[10]
  Change from Baseline in ISS7 at Week 12, LS Mean: 2.48
  Change from Baseline in ISS7 at Week 12, LS Mean Diff vs. placebo: 1.58
400 mg QPM, Baseline BHRA BHRA−
  Change from Baseline in ISS7 at Week 12, LS Mean Diff vs. placebo: 0.83
[11]
  Change from Baseline in ISS7 at Week 12, LS Mean: −3.64
  Change from Baseline in ISS7 at Week 12, LS Mean Diff vs. placebo: 0.77
  Change from Baseline in ISS7 at Week 12, Mean: −4.18
[12]
  Change from Baseline in ISS7 at Week 12, LS Mean: −3.43
  Change from Baseline in ISS7 at Week 12, LS Mean Diff vs. placebo: 2.13
  Change from Baseline in ISS7 at Week 12, Mean: −5.60
[13]
  Change from Baseline in ISS7 at Week 12, LS Mean: −7.49
  Change from Baseline in ISS7 at Week 12, Mean: −8.09
[14]
  Change from Baseline in ISS7 at Week 12, LS Mean: −4.12
  Change from Baseline in ISS7 at Week 12, LS Mean Diff vs. placebo: 0.22
  Change from Baseline in ISS7 at Week 12, Mean: −4.71
[15]
  Change from Baseline in ISS7 at Week 12, LS Mean: −3.98
  Change from Baseline in ISS7 at Week 12, LS Mean Diff vs. placebo: 1.77
  Change from Baseline in ISS7 at Week 12, Mean: −4.51
[16]
  Change from Baseline in ISS7 at Week 12, LS Mean: −4.36
  Change from Baseline in ISS7 at Week 12, LS Mean Diff vs. placebo: 1.71
  Change from Baseline in ISS7 at Week 12, Mean: −5.28
[17]
  Change from Baseline in ISS7 at Week 12, LS Mean: −5.86
  Change from Baseline in ISS7 at Week 12, LS Mean Diff vs. placebo: −1.21
  Change from Baseline in ISS7 at Week 12, Mean: −7.22
[18]
  Change from Baseline in ISS7 at Week 12, LS Mean: −8.76
  Change from Baseline in ISS7 at Week 12, LS Mean Diff vs. placebo: −3.62
400 mg QPM, Gender Female
  Change from Baseline in ISS7 at Week 12, LS Mean: 4.77
  Change from Baseline in ISS7 at Week 12, LS Mean Diff vs. placebo: 1.52
400 mg QPM, Gender Male
  Change from Baseline in ISS7 at Week 12, LS Mean: −4.68
  Change from Baseline in ISS7 at Week 12, LS Mean Diff vs. placebo: −1.14
400 mg TID, Age group (years) ≥65
  Change from Baseline in ISS7 at Week 12, LS Mean: −12.67
400 mg TID, Baseline BHRA BHRA−
  Change from Baseline in ISS7 at Week 12, LS Mean Diff vs. placebo: −3.33
[19]
  Change from Baseline in ISS7 at Week 12, LS Mean: −9.17
  Change from Baseline in ISS7 at Week 12, LS Mean Diff vs. placebo: −4.75
  Change from Baseline in ISS7 at Week 12, Mean: −9.13
[20]
  Change from Baseline in ISS7 at Week 12, LS Mean: −8.43
  Change from Baseline in ISS7 at Week 12, LS Mean Diff vs. placebo: −2.88
  Change from Baseline in ISS7 at Week 12, Mean: −10.74
[21]
  Change from Baseline in ISS7 at Week 12, LS Mean: −10.85
  Change from Baseline in ISS7 at Week 12, Mean: −11.88
[22]
  Change from Baseline in ISS7 at Week 12, LS Mean Diff vs. placebo: 6.74
  Change from Baseline in ISS7 at Week 12, Mean: −11.17
[23]
  Change from Baseline in ISS7 at Week 12, LS Mean: −9.97
  Change from Baseline in ISS7 at Week 12, LS Mean Diff vs. placebo: −4.22
  Change from Baseline in ISS7 at Week 12, Mean: −11.22
[24]
  Change from Baseline in ISS7 at Week 12, LS Mean: −8.41
  Change from Baseline in ISS7 at Week 12, LS Mean Diff vs. placebo: −2.35
  Change from Baseline in ISS7 at Week 12, Mean: −9.91
400 mg TID, Baseline weight (kg) ≥72.9 (Median)
  Change from Baseline in ISS7 at Week 12, LS Mean: −8.80
